From patent US20190060473A1 (priority 2016, published 2019)

Assay: general procedure: solution-phase peptide synthesis; HATU/DIPEA; EDC/DIPEA
Details: conjugation step

Question: For “(2S)-2-((R)-2-(2-((2-(4-(2-(5-(3-(2,4-dihydroxy-5-isopropylphenyl)-5-hydroxy-4H-1,2,4-triazol-4-yl)-1H-indol-1-yl)ethyl)piperidin-1-yl)-2-oxoethyl)disulfanyl)-N-methylacetamido)-3-methylbutanamido)-N-((3R,5S)-1-((R)-2-((1S,2R)-3-(((1R,2S)-1-hydroxy-1-phenylpropan-2-yl)amino)-1-methoxy-2-methyl-3-oxopropyl)pyrrolidin-1-yl)-3-methoxy-5-methyl-1-oxoheptan-4-yl)-N,3-dimethylbutanamide”, which conjugation yield is on record?
Answer: 51%
